One substance from article PMC10516997 can be followed below.

By UniProt entry, the sequences of proteins in these tests, tags left out.
UniProt Q9UKL0: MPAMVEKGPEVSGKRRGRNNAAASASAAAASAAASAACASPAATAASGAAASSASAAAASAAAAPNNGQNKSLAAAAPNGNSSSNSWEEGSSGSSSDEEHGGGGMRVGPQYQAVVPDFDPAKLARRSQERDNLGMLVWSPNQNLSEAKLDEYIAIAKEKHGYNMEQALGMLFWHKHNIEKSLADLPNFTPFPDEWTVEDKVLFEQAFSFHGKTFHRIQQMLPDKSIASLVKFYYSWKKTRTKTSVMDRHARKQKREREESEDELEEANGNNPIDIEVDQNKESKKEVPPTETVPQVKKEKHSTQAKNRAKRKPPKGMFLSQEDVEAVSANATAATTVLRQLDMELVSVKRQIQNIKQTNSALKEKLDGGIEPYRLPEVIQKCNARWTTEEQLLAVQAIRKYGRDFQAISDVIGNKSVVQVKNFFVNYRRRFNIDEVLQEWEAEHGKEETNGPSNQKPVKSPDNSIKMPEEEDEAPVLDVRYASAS

The test has as its target T1, Flag-tagged E2F7 (UniProt Q96AV8).
T1 sequence: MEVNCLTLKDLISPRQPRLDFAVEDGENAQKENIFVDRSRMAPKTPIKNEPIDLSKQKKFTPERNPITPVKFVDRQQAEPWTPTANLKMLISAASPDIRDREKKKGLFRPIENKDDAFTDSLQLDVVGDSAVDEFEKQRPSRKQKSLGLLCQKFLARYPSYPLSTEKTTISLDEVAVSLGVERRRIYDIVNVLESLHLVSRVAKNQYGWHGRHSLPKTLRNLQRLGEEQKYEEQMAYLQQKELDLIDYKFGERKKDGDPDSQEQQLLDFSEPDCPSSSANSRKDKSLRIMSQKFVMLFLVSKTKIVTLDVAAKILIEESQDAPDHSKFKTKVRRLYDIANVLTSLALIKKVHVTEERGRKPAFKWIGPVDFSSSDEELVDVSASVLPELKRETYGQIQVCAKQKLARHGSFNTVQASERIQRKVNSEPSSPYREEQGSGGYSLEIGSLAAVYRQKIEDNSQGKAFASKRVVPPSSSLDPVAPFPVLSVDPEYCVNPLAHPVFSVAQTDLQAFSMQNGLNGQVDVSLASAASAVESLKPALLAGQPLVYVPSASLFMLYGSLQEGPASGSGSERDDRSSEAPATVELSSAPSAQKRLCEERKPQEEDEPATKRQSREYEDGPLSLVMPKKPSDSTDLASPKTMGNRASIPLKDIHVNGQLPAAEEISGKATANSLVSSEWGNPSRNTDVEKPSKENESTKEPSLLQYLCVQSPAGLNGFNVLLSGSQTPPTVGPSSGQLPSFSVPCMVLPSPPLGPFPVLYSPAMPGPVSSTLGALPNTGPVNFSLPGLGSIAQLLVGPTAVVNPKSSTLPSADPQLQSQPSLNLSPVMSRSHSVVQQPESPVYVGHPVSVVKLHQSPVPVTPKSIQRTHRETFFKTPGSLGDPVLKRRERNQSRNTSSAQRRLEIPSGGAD
The test is described as follows: co-IP; Flag-tagged bait stably expressed in H209, H69 and H526 cells; endogenous partner detected.

Results are given in words; binding and its absence hold for the method and conditions named. In cells and extracts the contact can be indirect. Some entries that bind do so weakly or less than the wild type. Tags and fused reporters may be left off the sequences shown.

In the case of “endogenous RCOR1 (from UniProt Q9UKL0 1-485)”, the binding result is on record as “binds”.
